Reference: US12281205B2, “Modified antibacterial compositions and methods” (priority 2016, dated 2025)
At least one structure is not confirmed: it was looked up by name or label, or the drawing left a doubt.

Experiments:
[1] = test system: CMDR A. baumannii (FADDI-AB156); assay: Mouse peritonitis model; format: in vivo, C57BL/6 mice; details: 24 h; S16 8.3 mg/kg, imipenem 40 mg/kg
[2] = test system: A. baumannii (ATCC 19606); assay: Mouse peritonitis model; format: in vivo, C57BL/6 mice; details: 24 h
[3] = test system: MDR A. baumannii (FADDI-AB156); assay: Antibiogram of MDR A. baumannii; format: cell-based, Acinetobacter baumannii; details: CLSI resistant breakpoints

With C[C@@H](O)[C@H]1C(=O)N2C(C(=O)O)=C(SCCN=CN)C[C@H]12 [Imipenem] the “bacteria in the peritoneal cavity, blood and spleen” value [1] was “no effect on reducing bacteria levels”, the survival ([2]; S16 8.3 mg/kg, imipenem 40 mg/kg) was “survived with no signs of animal distress” and the “neutrophil infiltrate in the peritoneal cavity” value ([2]; vs mock-treated group) was “did not show any significant difference”. The Susceptibility [3] was “Resistant”.
